This passage reports binding results from patent publication US20060251652A1 (APPLIED MOLECULAR EVOLUTION, published 2006).

These are yes or no findings as the source states them, for the method shown. Some entries that bind do so weakly or less than the wild type.

This test has as its target T1, human CD20 (human, UniProt P11836 1-297).
T1 construct: whole, on cells; Always presented on cells (fixed Ramos cells in ELISA; live cells in flow cytometry and KinExA-type assays); also called hCD20; Bp35
T1 sequence (looked up): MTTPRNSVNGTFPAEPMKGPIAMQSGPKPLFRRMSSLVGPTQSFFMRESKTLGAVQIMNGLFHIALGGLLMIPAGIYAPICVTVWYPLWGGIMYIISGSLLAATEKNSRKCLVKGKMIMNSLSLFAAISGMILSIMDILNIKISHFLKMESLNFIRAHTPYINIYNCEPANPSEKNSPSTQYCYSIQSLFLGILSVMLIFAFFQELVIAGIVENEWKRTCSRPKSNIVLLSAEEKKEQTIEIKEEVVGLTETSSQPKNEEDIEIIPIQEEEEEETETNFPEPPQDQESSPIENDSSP
Description: ELISA on formalin-fixed Ramos cells, on-rate format: 5 min with Fab and 5 min with anti-His6 peroxidase, OD 450. In general terms: ELISA stands for enzyme-linked immunosorbent assay.

B1: 2C2 (Fab, V domains shown)
VH: EVQLVQSGAEVKKPGESLKISCKGSGYTFTSYNMHWVRQMPGKGLEWMGAIYPLNGDTSYNQKFKLQVTISADKSISTAYLQWSSLKASDTAMYYCARSTYVGGDWTFDVWGKGTTVTVSS
VL: EIVLTQSPGTLSLSPGERATLSCRASSSVSYIHWYQQKPGQAPRLLIYATSNLASGIPDRFSGSGSGTDFTLTISRLEPEDFAVYYCQQWLSNPPTFGQGTKLEIK
With B1, the binding entry was “binds”.
